Test results taken from patent publication US20030003050A1 (priority 2001, published 2003).
Like-named read-outs stand apart in the source and are kept apart here.

Tested on: B6μ, Heμ and CXμ mice
Details: before vs after 10 mg/kg intraperitoneal, 15 minutes after injection, measured for 300 seconds

## CN1CC[C@]23c4c5ccc(O)c4O[C@H]2[C@@H](O)C=C[C@H]3[C@H]1C5.Cl [morphine, Morphine hydrochloride]
B6μ and Heμ mice
  walking distance (morphine-induced hyperactivity), open-field test: walked similar distances before and after morphine administration
CXμ mice, p<0.001
  walking distance (morphine-induced hyperactivity), open-field test: walked significantly shorter distances after morphine administration
